# Results reported in article PMC10907597.
# Amino acid sequences for entries named in this document (tags omitted). A change or cut given only in a name is not applied to a line headed by its entry. Chains listed by the source or under a name are the forms on record and can include a tag or linker. Residues count along the entry.
# UniProt P38159: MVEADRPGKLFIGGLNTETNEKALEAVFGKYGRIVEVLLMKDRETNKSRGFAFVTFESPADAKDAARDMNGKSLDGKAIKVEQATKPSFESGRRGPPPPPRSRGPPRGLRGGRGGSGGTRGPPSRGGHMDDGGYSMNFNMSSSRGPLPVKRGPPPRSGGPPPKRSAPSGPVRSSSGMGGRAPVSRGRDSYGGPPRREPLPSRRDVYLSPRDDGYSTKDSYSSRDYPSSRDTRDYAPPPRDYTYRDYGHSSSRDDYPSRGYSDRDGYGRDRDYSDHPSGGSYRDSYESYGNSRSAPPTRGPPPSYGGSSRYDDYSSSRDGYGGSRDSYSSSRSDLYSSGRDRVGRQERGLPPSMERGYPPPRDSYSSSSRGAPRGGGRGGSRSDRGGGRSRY
# UniProt O75159: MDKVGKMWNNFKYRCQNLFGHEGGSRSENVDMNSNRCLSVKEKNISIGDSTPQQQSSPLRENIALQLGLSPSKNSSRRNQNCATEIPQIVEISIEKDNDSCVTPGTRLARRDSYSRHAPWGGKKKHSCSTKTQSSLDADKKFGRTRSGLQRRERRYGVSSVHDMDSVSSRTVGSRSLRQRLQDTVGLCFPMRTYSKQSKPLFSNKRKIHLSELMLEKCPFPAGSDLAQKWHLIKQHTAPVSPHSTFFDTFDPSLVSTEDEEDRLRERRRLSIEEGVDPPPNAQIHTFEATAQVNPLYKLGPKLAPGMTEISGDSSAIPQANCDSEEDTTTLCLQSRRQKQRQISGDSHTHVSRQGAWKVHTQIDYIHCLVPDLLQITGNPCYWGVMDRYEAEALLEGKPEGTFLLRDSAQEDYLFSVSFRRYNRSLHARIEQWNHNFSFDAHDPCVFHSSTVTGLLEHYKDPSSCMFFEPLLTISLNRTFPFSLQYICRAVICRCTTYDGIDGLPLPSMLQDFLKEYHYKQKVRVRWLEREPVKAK
# SOCS5 N-terminal domain deletion mutant (△N): residues 381-536 of O75159
# SOCS5 SOCS Box domain deletion mutant (△SB) (O75159, form named): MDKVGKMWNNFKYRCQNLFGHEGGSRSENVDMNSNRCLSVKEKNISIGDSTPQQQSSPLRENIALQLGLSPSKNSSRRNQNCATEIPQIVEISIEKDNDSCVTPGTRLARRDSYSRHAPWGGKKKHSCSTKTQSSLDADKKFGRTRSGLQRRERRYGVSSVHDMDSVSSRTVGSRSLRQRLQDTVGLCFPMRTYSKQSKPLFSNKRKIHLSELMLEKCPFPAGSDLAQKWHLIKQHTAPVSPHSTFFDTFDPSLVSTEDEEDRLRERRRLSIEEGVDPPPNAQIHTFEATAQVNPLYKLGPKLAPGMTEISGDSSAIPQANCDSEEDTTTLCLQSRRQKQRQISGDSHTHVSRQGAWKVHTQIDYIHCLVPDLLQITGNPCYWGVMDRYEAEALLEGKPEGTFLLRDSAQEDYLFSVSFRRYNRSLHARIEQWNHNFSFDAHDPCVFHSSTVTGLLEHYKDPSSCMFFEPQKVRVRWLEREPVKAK
# Results are given in words; binding and its absence hold for the method and conditions named. Binding seen in cells or lysates may run through a third protein. Some results given as binding are weak or reduced against the parent protein; the word gives no strength.
# Assays:
# [1] = target: RBMX-Myc (RNA binding motif protein X-linked, Myc-tagged) (UniProt P38159); experiment: co-IP; NP-40 lysis buffer; anti-HA or anti-c-Myc magnetic beads with lysate overnight at 4 °C; IgG control; Western blot; 293T and Huh7 cells (cells of the mutant panels of Fig. 5 not stated)
# [2] = target: SOCS5-GST (UniProt O75159); experiment: pull-down; GST pulldown of RBMX-myc with SOCS5-GST, called in vitro; conditions not given
# [3] = target: SOCS5 N-terminal domain deletion mutant (△N) (UniProt O75159); experiment: co-IP; NP-40 lysis buffer; anti-HA or anti-c-Myc magnetic beads with lysate overnight at 4 °C; IgG control; Western blot; 293T and Huh7 cells (cells of the mutant panels of Fig. 5 not stated)
# [4] = target: SOCS5 SOCS Box domain deletion mutant (△SB) (UniProt O75159); experiment: as above
# [5] = target: SOCS5-HA (suppressor of cytokine signaling 5, HA-tagged) (UniProt O75159); experiment: as above
binding [1],binding [2],binding [3],binding [4],binding [5],Substance
binds,–,–,–,–,"SOCS5-HA (suppressor of cytokine signaling 5, HA-tagged) (from UniProt O75159 1-536)"
–,binds,binds,binds,binds,"RBMX-Myc (RNA binding motif protein X-linked, Myc-tagged) (from UniProt P38159 1-391)"
–,–,–,–,binds,"RBMX (RNA binding motif protein X-linked), endogenous (from UniProt P38159 1-391)"
